# Source: paper PMC7302877
# The chains behind the UniProt entries cited, without tags or fusion partners.
# UniProt P84022: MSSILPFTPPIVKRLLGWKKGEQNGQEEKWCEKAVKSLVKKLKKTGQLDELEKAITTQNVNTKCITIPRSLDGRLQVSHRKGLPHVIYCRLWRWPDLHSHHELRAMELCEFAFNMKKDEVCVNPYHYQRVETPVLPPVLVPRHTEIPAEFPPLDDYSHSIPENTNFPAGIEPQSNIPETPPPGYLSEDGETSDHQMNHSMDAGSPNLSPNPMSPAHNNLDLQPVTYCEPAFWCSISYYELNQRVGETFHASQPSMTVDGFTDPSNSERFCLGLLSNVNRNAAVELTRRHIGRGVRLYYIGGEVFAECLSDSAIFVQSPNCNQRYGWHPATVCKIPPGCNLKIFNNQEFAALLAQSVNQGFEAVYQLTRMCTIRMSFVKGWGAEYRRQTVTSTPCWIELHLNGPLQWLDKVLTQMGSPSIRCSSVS
# UniProt Q13485: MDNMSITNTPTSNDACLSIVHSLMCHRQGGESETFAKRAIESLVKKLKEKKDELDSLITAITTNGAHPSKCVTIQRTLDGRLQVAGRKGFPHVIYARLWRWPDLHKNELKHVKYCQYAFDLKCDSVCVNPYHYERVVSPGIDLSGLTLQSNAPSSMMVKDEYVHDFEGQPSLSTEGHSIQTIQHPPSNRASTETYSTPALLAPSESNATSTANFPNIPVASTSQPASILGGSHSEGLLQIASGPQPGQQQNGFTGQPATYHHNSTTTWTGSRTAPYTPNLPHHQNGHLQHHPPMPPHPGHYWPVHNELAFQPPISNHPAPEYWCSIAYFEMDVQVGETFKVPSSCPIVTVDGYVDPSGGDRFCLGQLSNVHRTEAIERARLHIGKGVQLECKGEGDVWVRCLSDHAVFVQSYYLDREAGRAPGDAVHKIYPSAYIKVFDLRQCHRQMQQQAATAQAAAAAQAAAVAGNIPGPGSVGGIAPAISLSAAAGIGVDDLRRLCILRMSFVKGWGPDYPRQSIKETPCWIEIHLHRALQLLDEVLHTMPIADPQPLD
# These are yes or no findings as the source states them, for the method shown. In cells and extracts the contact can be indirect. Some binding calls cover weakened binding; strength is not graded here. For some of these results: Tags and fused reporters may be left off the sequences shown.
# T1: HA-TRIM27 (UniProt P14373)
# T1 sequence: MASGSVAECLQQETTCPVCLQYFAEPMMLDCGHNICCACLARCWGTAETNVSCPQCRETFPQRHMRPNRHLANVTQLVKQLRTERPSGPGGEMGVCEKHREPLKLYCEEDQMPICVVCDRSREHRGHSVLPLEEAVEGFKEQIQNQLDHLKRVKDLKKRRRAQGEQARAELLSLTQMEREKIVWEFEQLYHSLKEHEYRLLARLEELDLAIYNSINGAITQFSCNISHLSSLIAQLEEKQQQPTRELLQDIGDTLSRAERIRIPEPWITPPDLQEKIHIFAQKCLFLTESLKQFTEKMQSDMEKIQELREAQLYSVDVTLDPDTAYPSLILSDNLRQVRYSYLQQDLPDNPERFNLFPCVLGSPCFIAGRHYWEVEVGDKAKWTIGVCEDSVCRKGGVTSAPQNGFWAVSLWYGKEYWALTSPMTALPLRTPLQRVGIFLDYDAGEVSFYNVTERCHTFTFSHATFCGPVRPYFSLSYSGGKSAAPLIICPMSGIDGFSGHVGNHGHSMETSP
# T2: ZNF446-V5 (UniProt Q9NWS9)
# T2 sequence: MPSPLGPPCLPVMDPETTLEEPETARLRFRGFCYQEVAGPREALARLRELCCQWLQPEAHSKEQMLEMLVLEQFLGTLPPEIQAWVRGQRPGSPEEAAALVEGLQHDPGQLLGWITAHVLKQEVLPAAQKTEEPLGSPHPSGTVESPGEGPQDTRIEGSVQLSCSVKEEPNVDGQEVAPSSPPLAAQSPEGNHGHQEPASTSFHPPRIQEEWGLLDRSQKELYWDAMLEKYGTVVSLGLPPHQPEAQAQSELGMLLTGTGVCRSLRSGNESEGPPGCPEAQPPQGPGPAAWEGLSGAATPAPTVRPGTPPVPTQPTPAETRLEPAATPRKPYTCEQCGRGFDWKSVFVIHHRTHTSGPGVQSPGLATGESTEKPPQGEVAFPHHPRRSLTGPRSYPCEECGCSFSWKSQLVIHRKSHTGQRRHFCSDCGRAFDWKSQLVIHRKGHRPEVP
# T3: endogenous TRIM27 (human (endogenous in SUM159)) (UniProt P14373)
# T3 sequence: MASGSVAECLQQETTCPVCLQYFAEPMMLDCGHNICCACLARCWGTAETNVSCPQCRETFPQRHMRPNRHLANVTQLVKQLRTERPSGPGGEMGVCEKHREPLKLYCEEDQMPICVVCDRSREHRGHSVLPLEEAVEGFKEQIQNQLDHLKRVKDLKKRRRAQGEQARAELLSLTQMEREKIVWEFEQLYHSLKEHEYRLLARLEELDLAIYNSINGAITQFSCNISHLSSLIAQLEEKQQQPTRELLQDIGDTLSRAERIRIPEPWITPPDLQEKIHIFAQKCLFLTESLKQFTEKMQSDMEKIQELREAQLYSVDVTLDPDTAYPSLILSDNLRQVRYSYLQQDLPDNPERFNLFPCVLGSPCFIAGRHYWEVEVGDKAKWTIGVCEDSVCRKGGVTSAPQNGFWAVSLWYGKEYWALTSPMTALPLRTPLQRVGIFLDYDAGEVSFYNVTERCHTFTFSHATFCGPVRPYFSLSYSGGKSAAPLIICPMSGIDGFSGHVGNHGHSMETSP
# T4: endogenous ZNF165 (human (endogenous in SUM159)) (UniProt P49910)
# T4 sequence: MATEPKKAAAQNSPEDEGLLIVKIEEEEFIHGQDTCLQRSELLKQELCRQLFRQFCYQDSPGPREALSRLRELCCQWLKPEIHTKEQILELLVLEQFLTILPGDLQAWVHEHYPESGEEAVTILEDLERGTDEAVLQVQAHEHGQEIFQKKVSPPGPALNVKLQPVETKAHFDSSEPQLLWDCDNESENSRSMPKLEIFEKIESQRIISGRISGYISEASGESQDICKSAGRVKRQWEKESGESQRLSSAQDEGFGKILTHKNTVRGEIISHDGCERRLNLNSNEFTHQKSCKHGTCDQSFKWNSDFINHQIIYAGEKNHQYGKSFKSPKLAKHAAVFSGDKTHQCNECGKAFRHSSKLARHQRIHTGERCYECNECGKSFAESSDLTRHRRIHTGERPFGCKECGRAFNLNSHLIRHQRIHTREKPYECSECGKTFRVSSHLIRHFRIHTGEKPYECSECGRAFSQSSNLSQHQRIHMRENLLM
# Columns and labels:
# HA-SMAD3 = HA-SMAD3 (UniProt P84022); experiment: co-IP; co-expression in HEK293T for 48 h; lysis in non-denaturing buffer (50 mM HEPES pH 7.4, 150 mM NaCl, 1% Triton X-100, 0.5% sodium deoxycholate); immunoprecipitation with HA or V5 antibody at 4°C; three washes in the buffer and one with 500 mM NaCl; immunoblot
# HA-TRIM27 = biological target: T1, HA-TRIM27; experiment: as above
# ZNF446-V5 = biological target: T2, ZNF446-V5; experiment: as above
# [1] = biological target: T3, endogenous TRIM27 (human (endogenous in SUM159)); experiment: proximity ligation; Duolink PLA with V5 and TRIM27 antibodies in fixed SUM159 cells stably expressing ZNF165-V5; parental SUM159 cells as negative control; foci per nucleus
# [2] = biological target: phosphorylated SMAD3 (Ser423/425) (human (endogenous in SUM159)) (UniProt P84022); experiment: co-IP; ChIP followed by immunoblot: SUM159 cells stably expressing ZNF165-V5, cross-linked with 1% formaldehyde, sheared chromatin precipitated with antibody against phosphorylated SMAD3 (Ser423/425) or IgG
# [3] = biological target: endogenous SMAD3 (human (endogenous in SUM159)) (UniProt P84022); experiment: proximity ligation; Duolink PLA with antibodies against the two endogenous proteins in fixed SUM159 cells; either antibody alone as negative control; pre-treatment with 20 μM SB-431542 or DMSO for 15 min, then 5 ng/mL TGFβ for 30 min; foci per nucleus
# [4] = biological target: endogenous SMAD4 (human (endogenous in SUM159)) (UniProt Q13485); experiment: as above
# [5] = biological target: T4, endogenous ZNF165 (human (endogenous in SUM159)); experiment: co-IP; SUM159 nuclear lysates (RIPA buffer, sonication) immunoprecipitated overnight at 4°C with antibody against endogenous ZNF165 or IgG; immunoblot
Binder,binding (HA-TRIM27),binding [3],binding [4],further results
"ZNF165-myc (protein, UniProt P49910 1-485) MATEPKKAAAQNSPEDEGLLIVKIEEEEFIHGQDTCLQRSELLKQELCRQLFRQFCYQDSPGPREALSRLRELCCQWLKPEIHTKEQILELLVLEQFLTILPGDLQAWVHEHYPESGEEAVTILEDLERGTDEAVLQVQAHEHGQEIFQKKVSPPGPALNVKLQPVETKAHFDSSEPQLLWDCDNESENSRSMPKLEIFEKIESQRIISGRISGYISEASGESQDICKSAGRVKRQWEKESGESQRLSSAQDEGFGKILTHKNTVRGEIISHDGCERRLNLNSNEFTHQKSCKHGTCDQSFKWNSDFINHQIIYAGEKNHQYGKSFKSPKLAKHAAVFSGDKTHQCNECGKAFRHSSKLARHQRIHTGERCYECNECGKSFAESSDLTRHRRIHTGERPFGCKECGRAFNLNSHLIRHQRIHTREKPYECSECGKTFRVSSHLIRHFRIHTGEKPYECSECGRAFSQSSNLSQHQRIHMRENLLM",binds,,,binding (HA-SMAD3): binds; binding (ZNF446-V5): binds
"ZNF165-V5 (protein, UniProt P49910 1-485) MATEPKKAAAQNSPEDEGLLIVKIEEEEFIHGQDTCLQRSELLKQELCRQLFRQFCYQDSPGPREALSRLRELCCQWLKPEIHTKEQILELLVLEQFLTILPGDLQAWVHEHYPESGEEAVTILEDLERGTDEAVLQVQAHEHGQEIFQKKVSPPGPALNVKLQPVETKAHFDSSEPQLLWDCDNESENSRSMPKLEIFEKIESQRIISGRISGYISEASGESQDICKSAGRVKRQWEKESGESQRLSSAQDEGFGKILTHKNTVRGEIISHDGCERRLNLNSNEFTHQKSCKHGTCDQSFKWNSDFINHQIIYAGEKNHQYGKSFKSPKLAKHAAVFSGDKTHQCNECGKAFRHSSKLARHQRIHTGERCYECNECGKSFAESSDLTRHRRIHTGERPFGCKECGRAFNLNSHLIRHQRIHTREKPYECSECGKTFRVSSHLIRHFRIHTGEKPYECSECGRAFSQSSNLSQHQRIHMRENLLM",,,,binding [1]: binds; binding [2]: binds
"endogenous TRIM27 (protein, UniProt P14373-1 1-513) MASGSVAECLQQETTCPVCLQYFAEPMMLDCGHNICCACLARCWGTAETNVSCPQCRETFPQRHMRPNRHLANVTQLVKQLRTERPSGPGGEMGVCEKHREPLKLYCEEDQMPICVVCDRSREHRGHSVLPLEEAVEGFKEQIQNQLDHLKRVKDLKKRRRAQGEQARAELLSLTQMEREKIVWEFEQLYHSLKEHEYRLLARLEELDLAIYNSINGAITQFSCNISHLSSLIAQLEEKQQQPTRELLQDIGDTLSRAERIRIPEPWITPPDLQEKIHIFAQKCLFLTESLKQFTEKMQSDMEKIQELREAQLYSVDVTLDPDTAYPSLILSDNLRQVRYSYLQQDLPDNPERFNLFPCVLGSPCFIAGRHYWEVEVGDKAKWTIGVCEDSVCRKGGVTSAPQNGFWAVSLWYGKEYWALTSPMTALPLRTPLQRVGIFLDYDAGEVSFYNVTERCHTFTFSHATFCGPVRPYFSLSYSGGKSAAPLIICPMSGIDGFSGHVGNHGHSMETSP",,binds,binds,
"endogenous ZNF165 (protein, UniProt P49910 1-485) MATEPKKAAAQNSPEDEGLLIVKIEEEEFIHGQDTCLQRSELLKQELCRQLFRQFCYQDSPGPREALSRLRELCCQWLKPEIHTKEQILELLVLEQFLTILPGDLQAWVHEHYPESGEEAVTILEDLERGTDEAVLQVQAHEHGQEIFQKKVSPPGPALNVKLQPVETKAHFDSSEPQLLWDCDNESENSRSMPKLEIFEKIESQRIISGRISGYISEASGESQDICKSAGRVKRQWEKESGESQRLSSAQDEGFGKILTHKNTVRGEIISHDGCERRLNLNSNEFTHQKSCKHGTCDQSFKWNSDFINHQIIYAGEKNHQYGKSFKSPKLAKHAAVFSGDKTHQCNECGKAFRHSSKLARHQRIHTGERCYECNECGKSFAESSDLTRHRRIHTGERPFGCKECGRAFNLNSHLIRHQRIHTREKPYECSECGKTFRVSSHLIRHFRIHTGEKPYECSECGRAFSQSSNLSQHQRIHMRENLLM",,binds,binds,
"endogenous ZNF446 (protein, UniProt Q9NWS9 1-450) MPSPLGPPCLPVMDPETTLEEPETARLRFRGFCYQEVAGPREALARLRELCCQWLQPEAHSKEQMLEMLVLEQFLGTLPPEIQAWVRGQRPGSPEEAAALVEGLQHDPGQLLGWITAHVLKQEVLPAAQKTEEPLGSPHPSGTVESPGEGPQDTRIEGSVQLSCSVKEEPNVDGQEVAPSSPPLAAQSPEGNHGHQEPASTSFHPPRIQEEWGLLDRSQKELYWDAMLEKYGTVVSLGLPPHQPEAQAQSELGMLLTGTGVCRSLRSGNESEGPPGCPEAQPPQGPGPAAWEGLSGAATPAPTVRPGTPPVPTQPTPAETRLEPAATPRKPYTCEQCGRGFDWKSVFVIHHRTHTSGPGVQSPGLATGESTEKPPQGEVAFPHHPRRSLTGPRSYPCEECGCSFSWKSQLVIHRKSHTGQRRHFCSDCGRAFDWKSQLVIHRKGHRPEVP",,binds,binds,binding [5]: binds
"ZNF446-V5 (protein, UniProt Q9NWS9 1-450) MPSPLGPPCLPVMDPETTLEEPETARLRFRGFCYQEVAGPREALARLRELCCQWLQPEAHSKEQMLEMLVLEQFLGTLPPEIQAWVRGQRPGSPEEAAALVEGLQHDPGQLLGWITAHVLKQEVLPAAQKTEEPLGSPHPSGTVESPGEGPQDTRIEGSVQLSCSVKEEPNVDGQEVAPSSPPLAAQSPEGNHGHQEPASTSFHPPRIQEEWGLLDRSQKELYWDAMLEKYGTVVSLGLPPHQPEAQAQSELGMLLTGTGVCRSLRSGNESEGPPGCPEAQPPQGPGPAAWEGLSGAATPAPTVRPGTPPVPTQPTPAETRLEPAATPRKPYTCEQCGRGFDWKSVFVIHHRTHTSGPGVQSPGLATGESTEKPPQGEVAFPHHPRRSLTGPRSYPCEECGCSFSWKSQLVIHRKSHTGQRRHFCSDCGRAFDWKSQLVIHRKGHRPEVP",binds,,,
